Data on 43 compounds can be found in PubChem BioAssay AID1381 (University of Pittsburgh Molecular Library Screening Center, 2008).

The list shows a part of the results. Some salts or complexes appear as unconnected parts, following the source record.

The assay in a line: inhibitors of GR-EGFP nuclear translocation, primary screen, dynein cargo transport inhibitor project, imaging, high-content, 3617.4 mouse cells (AID 1381). Conditions: stimulated with dexamethasone, 1 µM.
[1] abbreviates: measured here: cell count per field, at 20 µM.
The mark [2] stands for this setting: measured here: cytoplasmic GR-EGFP intensity, at 20 µM, stronger effect = higher value.
Setting [3] is: measured here: nuclear GR-EGFP intensity, at 20 µM, stronger effect = lower value.
The mark [4] stands for this setting: measured here: cell count per field, at 50 µM.
Where [5] appears, read: measured here: cytoplasmic GR-EGFP intensity, at 50 µM, stronger effect = higher value.
Where [6] appears, read: measured here: nuclear GR-EGFP intensity, at 50 µM, stronger effect = lower value.

On to `O=c1c2cc([N+](=O)[O-])ccc2[nH]c2c([N+](=O)[O-])cc([N+](=O)[O-])cc12`, for which the z-score is 1.2 under setting [1], -0.0295 under setting [2] and -1.32 under setting [3].
Regarding `CP(=O)(Nc1ccccc1)Oc1ccc(F)cc1` (centres undefined), the z-score runs as follows: under setting [4], 0.281; under setting [5], -0.229; under setting [6], -1.31.
Regarding `c1ccc(-c2nn[nH]n2)c(-c2nn[nH]n2)c1`, the z-score reads like this: under setting [1], -1.15; under setting [2], 0.0108; under setting [3], 0.769.
The matching figures for `Cc1ccc(NP(=O)(Oc2cccc(C)c2)Oc2cccc(C)c2)nc1`: -0.912, -0.234 and 1.34.
For the compound `CCOC(=O)NC(Sc1ccccc1)C(Cl)(Cl)Cl` (centres undefined), the z-score runs as follows: under setting [1], 0.427; under setting [2], -0.186; under setting [3], 0.257.
Regarding `O=C(NC1CCS(=O)(=O)C1)NP(=S)(Oc1ccccc1)Oc1ccccc1` (centres undefined), the z-score runs as follows: under setting [1], 0.644; under setting [2], 1.01; under setting [3], 0.171.
On to `CCNC(=S)/N=C(\N)N[N+](=O)[O-]`, for which the z-score is 0.841 under setting [1], -0.256 under setting [2] and -0.156 under setting [3].
As for `COc1ccc(OP(C)(=O)Nc2ccc(SC(F)(F)F)cc2)cc1` (centres undefined), the z-score runs as follows: under setting [1], 0.297; under setting [2], -0.175; under setting [3], -0.0643.
For the compound `CCOC(=O)c1ccc(NP(C)(=O)Oc2ccc(F)cc2)cc1` (centres undefined), the z-score is 0.1 under setting [1], 0.00325 under setting [2] and 0.714 under setting [3].
As for `O=C(OCCN1CCN(CCOCc2ccccc2)CC1)C(O)(c1ccccc1)c1ccccc1`, the z-score is, setting by setting: under setting [1], -0.795; under setting [2], 0.34; under setting [3], 0.354.
Take `C[C@@H]1C=CCP(=O)(Oc2ccccc2)O1` (some centres undefined): the z-score under setting [1] was -0.016, the z-score under setting [2] is -0.826 and the z-score under setting [3] turned out to be 0.398.
In turn, `C[C@H]1OP(=O)(Oc2ccccc2)C[C@@H]2O[C@@H]21` (some centres undefined) displayed a z-score under setting [1] of -0.141, a z-score under setting [2] of -0.727 and a z-score under setting [3] of -0.0554.
As for `O=C(OC1CN2CCC1CC2)c1ccc([N+](=O)[O-])cc1` (centres undefined), the z-score runs as follows: under setting [1], 1.03; under setting [2], -0.196; under setting [3], -0.382.
For the compound `COc1ccc2c(c1O)-c1c(O)c(OC)cc3c1[C@H](C2)[N+](C)(C)CC3.O=[N+]([O-])c1cc([N+](=O)[O-])c([O-])c([N+](=O)[O-])c1[O-]`, the z-score by setting is: under setting [1], 0.765; under setting [2], -0.744; under setting [3], -0.293.
As for `CC(=O)Nc1ccc([As](=O)(O)O)c(O)c1`, the z-score by setting is: under setting [1], -0.652; under setting [2], -0.228; under setting [3], 0.472.
Consider `CC(=O)Nc1ccc(Oc2c([N+](=O)[O-])cc([N+](=O)[O-])cc2[N+](=O)[O-])cc1`, for which the z-score was 0.733 under setting [1], -0.369 under setting [2] and 0.0501 under setting [3].
In the case of `O=P1(Nc2nc3ccc(Cl)cc3s2)COc2ccccc2O1` (centres undefined), the z-score by setting is: under setting [1], -0.26; under setting [2], -0.404; under setting [3], 0.184.
On the same counts, the results for `CCOc1ccc(C2=NCC(CBr)S2)cc1` (centres undefined) are -2.17, 0.0559 and 1.59.
`CC(C)(C)C(=O)NC(Sc1ccccc1)C(Cl)(Cl)Cl` (centres undefined): the z-score reads like this: under setting [1], 0.444; under setting [2], -0.247; under setting [3], -0.36.
On to `CC(C)c1ccc(OP(C)(=O)Nc2ccc(SC(F)(F)F)cc2)cc1` (centres undefined), for which the z-score is, setting by setting: under setting [1], -0.273; under setting [2], -0.227; under setting [3], -0.145.
Turning to `CP(=O)(Nc1ccccc1F)Oc1ccccc1` (centres undefined), the z-score by setting is: under setting [1], 0.444; under setting [2], -0.242; under setting [3], 0.129.
On to `CP(=O)(Nc1ccc2c(c1)OCCO2)Oc1ccccc1` (centres undefined), for which the z-score is, setting by setting: under setting [4], 0.324; under setting [5], -0.259; under setting [6], -0.725.
As for `Cc1ccccc1NP(C)(=O)Nc1ccccc1C`, the z-score runs as follows: under setting [1], 1.19; under setting [2], -0.203; under setting [3], 0.151.
In the case of `O=P(Nc1nccs1)(c1ccccc1)c1ccccc1`, the z-score by setting is: under setting [4], -0.484; under setting [5], -0.0257; under setting [6], 0.689.
For the compound `CC(C)C(=O)NC(Sc1ccccc1)C(Cl)(Cl)Cl` (centres undefined), the z-score by setting is: under setting [1], 1.76; under setting [2], -0.126; under setting [3], 0.0739.
The matching figures for `CP(=O)(Nc1ccc(SC(F)(F)F)cc1)Oc1ccc(F)cc1` (centres undefined): -1.1, -0.216 and 0.701.
The matching figures for `c1nnnn1CCn1cnnn1`: -0.0992, -0.199 and 0.266.
The matching figures for `CCOP(C)(=S)SCC(=O)NC(C)(CC)C(=O)O` (centres undefined): 1.17, -0.214 and -0.419.
Regarding `O=[As](O)(c1ccccc1)c1ccc(O)cc1`, the z-score by setting is: under setting [1], 0.407; under setting [2], -0.255; under setting [3], -0.119.
Turning to `Cc1cc(-c2cccc3ccccc23)c(C)cn1.O=[N+]([O-])c1cc([N+](=O)[O-])c(O)c([N+](=O)[O-])c1`, the z-score under setting [1] was determined as 0.183, the z-score under setting [2] was -0.231 and the z-score under setting [3] was -0.531.
`O=[N+]([O-])c1cc([N+](=O)[O-])c(NCC2CCS(=O)(=O)C2)c([N+](=O)[O-])c1` (centres undefined): the z-score runs as follows: under setting [1], -0.128; under setting [2], -0.014; under setting [3], 0.157.
Compound `O=[N+]([O-])c1ccc(OP2(=O)COCCO2)cc1` (centres undefined) yielded a z-score under setting [1] of 0.658, a z-score under setting [2] of -0.292 and a z-score under setting [3] of -0.37.
On the same counts, the results for `CC(=O)NC(SC(=S)N(C)C)C(Cl)(Cl)Cl` (centres undefined) are -0.506, -0.113 and 1.35.
On to `O=[N+]([O-])c1ncn(CCn2cnc([N+](=O)[O-])n2)n1`, for which the z-score was -0.607 under setting [1], -0.246 under setting [2] and 0.489 under setting [3].
On the same counts, the results for `O=C(OC1CN2CCC1CC2)c1cccc(Cl)c1` (centres undefined) are -0.0215, 0.0121 and 0.23.
On the same counts, the results for `Nc1ccc([As](=O)(O)c2ccc([N+](=O)[O-])cc2)cc1` are -0.221, -0.211 and -0.156.
The matching figures for `C(Cc1nn[nH]n1)Cc1nn[nH]n1`: 1.17, -0.202 and -0.786.
With `O=P(Nc1ccccn1)(c1ccc(Br)cc1)c1ccc(Br)cc1`, the z-score was 0.664 under setting [1], -0.208 under setting [2] and 0.333 under setting [3].
Regarding `COc1ccc(OP(C)(=O)Nc2cccc(Br)c2)cc1` (centres undefined), the z-score reads like this: under setting [1], 0.589; under setting [2], -0.222; under setting [3], 0.589.
As to `COc1ccc(NP(C)(=O)Oc2ccccc2OC)cc1` (centres undefined), the z-score under setting [1] is 0.332, the z-score under setting [2] was -0.265 and the z-score under setting [3] is -0.349.
On the same counts, the results for `O=P(Nc1nc2ccccc2s1)(c1ccccc1)c1ccccc1` are 0.398, -0.135 and 0.0443.
Consider `CN(C)CCOC(=O)C(O)(c1ccccc1)C1CCCCC1` (centres undefined), for which the z-score by setting is: under setting [4], 0.247; under setting [5], -0.221; under setting [6], -0.662.
Turning to `C[C@H]1OP(=O)(Oc2ccccc2)[C@H](O)[C@H](O)[C@H]1N=[N+]=[N-]` (some centres undefined), the z-score was 0.483 under setting [1], -0.716 under setting [2] and -0.0621 under setting [3].
